Laboratory results published in US7026489B2, “Ketol fatty acid derivative and plant growth regulating agents” (Shiseido Company, Ltd., priority 2000, dated 2006).
At least one compound was matched to its structure with a doubt left.

Columns and labels:
[1] = test system: Lemna paucicostata (duckweed) P151 plants; experiment: Flower bud formation promoting activity of compound (5) in duckweed, percent flower generation (Example 3); type: in vivo; settings: added to assay medium, 7 days continuous light, FIG. 4
[2] = test system: morning glory (Pharbitis nil); experiment: Flower bud formation promoting activity of compounds (4) and (5) in morning glory (Example 2); type: in vivo; settings: sprayed onto cotyledons at 0.001 μM to 100 μM, 14 hours dark, counted on day 14; FIG. 3
Procedure: Seeds (9 g) of morning glory (variety name: Murasaki) were treated with concentrated sulfuric acid for 20 minutes, and then left to stand overnight under running water. Subsequently, the treated seeds were placed on wet sea sand for 24 hours, hilum side up, to thereby form roots. The seeds having roots were planted in sea sand to a depth of 1.5 cm to 2.0 cm, followed by culturing under continuous light (for approximately 5 days). The whole plants of the morning glory which had put forth leaves through the culture were transferred to a culture solution [KNO3 (250 mg), NH4NO3 (250 mg), KH2PO4 (250 mg), MgSO4.7H2O (250 mg), MnSO4.4H2O (1 mg), Fe-citrate n-hydrate (6 mg), H3BO3 (2 mg), CuSO4.5H2O (0.1 mg), ZnSO4.7H2O (0.2 mg), Na2MoO4.2H2O (0.2 mg), Ca(H2PO4)2.2H2O (250 mg)/distilled water (1,000 mL)]. Compound (4) or compound (5) was sprayed onto the cotyledons of the above morning glory plants at a spray volume of 2 mL per eight plants. The morning glory plants were subjected to treatment in the dark (14 hours), then raised under the application of continuous light at 26° C. for 14 days. On day 14, the number of flower buds of the morning glory plants was counted. As a control, distilled water was sprayed onto a group of plants. Compound (4) was sprayed at a concentration of 100 μM, whereas compound (5) was sprayed at concentrations of 0.001 μM to 100 μM.

SMILES: CC/C=C\C[C@H]1[C@H](CC(=O)[C@H](O)CCCCCCCC(=O)O)O[C@@]2(O)CC13C(=CC2=O)NC[C@H]3O [compound (5), (9R)-11-{(2′S,8′S,10′S,11′R)-2′,8′-dihydroxy-7′-oxo-11′-[(Z)-2-pentenyl]-9′-oxa-4′-azatricyclo[6.3.1.0^1.5]dodec-5′-en-10′-yl}-9-hydroxy-10-oxoundecanoic Acid]
- flower bud formation promoting activity (percent flower generation) ([1]; 24-25° C.): found to have flower bud formation promoting activity
- level of flower bud formation promoting activity compared with reaction mixture of compound (4) and norepinephrine [1]: slightly lower
- flower bud formation promoting activity (number of flower buds) [2]: exhibited flower bud formation promoting activity
